These are yes or no findings as the source states them, for the method shown. Some entries that bind do so weakly or less than the wild type. Sequences can lack the tags named with a protein.
Legend:
[1] = target: T1, Ara h 2 (Arachis hypogaea allergen 2) (Arachis hypogaea, UniProt Q6PSU2 22-172); assay: ELISA, purified rabbit antibody
T1 construct: Peanut allergen; also called nAra h 2; natural Ara h 2
T1 sequence: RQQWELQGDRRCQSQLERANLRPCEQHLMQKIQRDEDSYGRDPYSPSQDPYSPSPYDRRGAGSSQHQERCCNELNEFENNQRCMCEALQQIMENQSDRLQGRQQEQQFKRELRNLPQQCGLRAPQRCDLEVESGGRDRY

[2] = target: T2, Ara h 6 (Arachis hypogaea allergen 6) (Arachis hypogaea, UniProt Q647G9 22-145); assay: ELISA, purified rabbit antibody
T2 construct: Peanut allergen; also called Ara h 6.0101; nAra h 6
T2 sequence: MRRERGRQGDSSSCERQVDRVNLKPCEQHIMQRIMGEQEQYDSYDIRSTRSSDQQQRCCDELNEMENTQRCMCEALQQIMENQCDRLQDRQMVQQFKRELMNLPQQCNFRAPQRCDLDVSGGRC

[3] = target: T1, Ara h 2 (Arachis hypogaea allergen 2); assay: as shown in the appended examples
[4] = target: T3, Ara h 3 (Arachis hypogaea allergen 3) (Arachis hypogaea); assay: as shown in the appended examples
T3 construct: Peanut allergen; also called Ara h 3.0101; nAra h 3
T3 chain: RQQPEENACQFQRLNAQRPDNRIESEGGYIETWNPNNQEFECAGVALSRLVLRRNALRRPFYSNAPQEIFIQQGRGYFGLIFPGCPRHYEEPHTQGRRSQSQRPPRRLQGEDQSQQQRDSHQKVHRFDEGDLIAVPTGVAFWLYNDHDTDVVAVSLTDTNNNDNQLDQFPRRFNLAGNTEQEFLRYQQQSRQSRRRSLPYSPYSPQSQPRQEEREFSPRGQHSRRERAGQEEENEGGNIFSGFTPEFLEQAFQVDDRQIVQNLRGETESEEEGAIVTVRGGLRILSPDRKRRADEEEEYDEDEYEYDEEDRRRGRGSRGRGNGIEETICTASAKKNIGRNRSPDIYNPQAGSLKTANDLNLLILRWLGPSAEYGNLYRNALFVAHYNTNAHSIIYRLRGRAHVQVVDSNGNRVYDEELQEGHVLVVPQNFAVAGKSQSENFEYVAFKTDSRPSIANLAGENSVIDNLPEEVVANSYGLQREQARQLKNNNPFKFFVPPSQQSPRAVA

[5] = target: T1, Ara h 2 (Arachis hypogaea allergen 2); assay: ELISA, antibody titration on coated nAra h 2
[6] = target: T1, Ara h 2 (Arachis hypogaea allergen 2); assay: ELISA
[7] = target: T3, Ara h 3 (Arachis hypogaea allergen 3); assay: ELISA
[8] = target: T3, Ara h 3 (Arachis hypogaea allergen 3); assay: ELISA, antibody titration on coated nAra h 3
[9] = target: T1, Ara h 2 (Arachis hypogaea allergen 2); assay: ELISA, antibody titration on coated Ara h 2

Measured: binding

B1: 2F8_rb_IGHV1S7_J4+IGKV1S21_JK1-2 (antibody, V domains shown)
VH: QQLKESGGGLVKPGGSLKLCCKASGFTFSDYNMNWVRQAPGKGLEWIGSITRSSRTIYYADSVKGRFTLSRDNAQSTVCLQLNSLTAADTATYFCAREDFNVYTGPYYYDVWGPGTLVTVSS
VL: YVMMTQTPSSVSEAVGGTVTIYCRASQSVSNMFLVWYQQKPGQPPKLLIYGASTRATGVPSRFRGSGSGTQFTLTISGMKAEDVATYYCQQNGNSPYTFGGGTEVVVK
binds: [1] | [2]

B2: 17H9 (antibody, V domains shown)
VH: QVQLEEYGGGVVQPGRSLRLSCVASGSTLGTYGMHWVRQAPGKGLEWVAIISPDGGHQDYADPVRGRFTVSRDNSKNTLYLQMDNLRVEDTAVYYCATTLCARTDCTWVRSDSWGQGTLVTVSS
VL: ANVLTQSPGTLSLSPGERATLSCRASQRVSGDYLAWYQQKRGQAPRLLIYGASSRATGIPDRFSGSGSGTDFTLTISRLEPEDFAVYYCQHYNGPPVTFGQGTKLEIK
notes: Fully human monoclonal antibody, wild-type variable regions; tested as IgG (detected with anti-human IgG); also called MY006-17H9
binds: [3] | [4] | [5] | [6] | [7] | [8]

B3: 2F8 (antibody, V domains shown)
VH: EVQLVESGGGLVKPGGSLRLSCAASGFIFSDYNMNWVRQAPGKGLEWVSSITRSSRTIYYADSVKGRFTISRDNAKNSLHLQMNSLRDADTAVYYCAREDFDVSTGPYYMDVWGNGTTVIVSS
VL: EIVLTQSPGTLSLSPGERATLSCRASQSVSNMFLVWYQQKPGQAPRLLMYGASTRATDIPDRFSGSGSGTDFTLTISRLEPEDFAVYYCQQNGNSPYTFGQGTKLEIK
notes: Fully human monoclonal antibody, wild-type variable regions; tested as IgG; also called MY006-2F8
binds: [5] | [6] | [9]

Reference: US20250320282A1 (MABYLON, published 2025)
